Results on 13 molecules are retold here after the odorant receptor screen of Mainland et al. (2015).

“And” between values parts separate entries of the source, which are not always exact repeats. Equal values may be shown once. Some of the results follow. Each value is one well over the wells without odorant, computed here; the data are noisy.

Among the test systems are OR2F2 A98V clone 1087; OR2G2 clone 1385; OR2G3 clone 1328; OR2G3 clone 1382; OR2G6 clone 1487; OR2H1 clone 1393; OR2H2 clone 1066; OR2J2 T111A clone 1073.
Holding throughout (test): odorant receptor activation (CRE luciferase / Renilla) (fold of no-odor wells); higher = more activation
Holding throughout (details): 100 µM

Experiment [1] has as its system OR2G2 P24A/V120L/R236G clone 1349.
The subject of experiment [2] is OR2H2 L30F/A48V clone 1061.

With `COC(=O)c1ccccc1O` [methyl salicylate], the odorant receptor activation with OR2F2 A98V clone 1087 is 0.996; in experiment [1], 0.906; with OR2G2 clone 1385, 1.01; in the experiment with OR2G3 clone 1328, 0.82; with OR2G3 clone 1382 it was 1.18; in the experiment on OR2G6 clone 1487, 0.928. In addition, the odorant receptor activation in the experiment with OR2H1 clone 1393 amounted to 1.01; in [2], 1.3; with OR2H2 clone 1066, 1.19; with OR2J2 T111A clone 1073, 1.03.
On to `CCCCCOC(C)=O` [n-amyl acetate], for which the odorant receptor activation in the experiment with OR2F2 A98V clone 1087 is 1.57; in experiment [1] it was 0.578 and 0.695; with OR2G2 clone 1385 it was 0.885; with OR2G3 clone 1328, 0.445; in the experiment on OR2G3 clone 1382 it was 0.72; in the experiment on OR2G6 clone 1487, 1 and 1.03. Besides, the odorant receptor activation in the experiment on OR2H1 clone 1393 amounted to 0.914; in experiment [2], 1.59; in the experiment with OR2H2 clone 1066 it was 1.11; with OR2J2 T111A clone 1073, 1.97.
Take `O=C1CCCCC1` [Cyclohexanone]: the odorant receptor activation was 0.73 with OR2F2 A98V clone 1087; 0.487 and 0.951 in experiment [1]; 0.802 with OR2G2 clone 1385; 0.533 in the experiment with OR2G3 clone 1328; 0.868 in the experiment with OR2G3 clone 1382; 1.13 and 1.09 in the experiment with OR2G6 clone 1487. The odorant receptor activation with OR2H1 clone 1393 is 0.805; in [2], 0.866; with OR2H2 clone 1066, 0.575; in the experiment on OR2J2 T111A clone 1073, 1.19.
Turning to `CC(C)CCC(=O)O` [4-methylvaleric acid], the odorant receptor activation was found to be 10.3 with OR2F2 A98V clone 1087; 0.933 in experiment [1]; 1.44 with OR2G2 clone 1385; 0.741 in the experiment with OR2G3 clone 1328; 1.4 in the experiment on OR2G3 clone 1382; 0.931 in the experiment on OR2G6 clone 1487. Further, the odorant receptor activation in the experiment on OR2H1 clone 1393 is 1.49; in experiment [2], 1.67; in the experiment with OR2H2 clone 1066, 2.35; with OR2J2 T111A clone 1073 it was 1.01.
`CC/C=C\CCO` [cis-3-hexen-1-ol]: the odorant receptor activation in the experiment with OR2F2 A98V clone 1087 amounted to 0.86; in experiment [1] it was 1.05; with OR2G2 clone 1385, 0.166; in the experiment with OR2G3 clone 1328, 1.14; in the experiment on OR2G3 clone 1382, 0.266; in the experiment with OR2G6 clone 1487, 0.956. Also, the odorant receptor activation in the experiment on OR2H1 clone 1393 was found to be 0.158; in [2], 0.975; with OR2H2 clone 1066, 0.942; in the experiment with OR2J2 T111A clone 1073 it was 1.25.
On to `CC12CCC(C1)C(C)(C)C2=O` (stereo not given) [fenchone], for which the odorant receptor activation with OR2F2 A98V clone 1087 worked out at 1.1; in experiment [1], 0.908; in the experiment with OR2G2 clone 1385, 1.08; in the experiment on OR2G3 clone 1328, 0.971; in the experiment with OR2G3 clone 1382, 0.935; in the experiment on OR2G6 clone 1487, 1.05. The odorant receptor activation in the experiment with OR2H1 clone 1393 turned out to be 1.06; in [2] it was 1.15; in the experiment with OR2H2 clone 1066, 0.97; in the experiment with OR2J2 T111A clone 1073, 0.948.
Turning to `C=CCc1ccc(OC(C)=O)c(OC)c1` [eugenol acetate], the odorant receptor activation in the experiment with OR2F2 A98V clone 1087 was found to be 1.7; in experiment [1] it was 1.74; in the experiment on OR2G2 clone 1385 it was 1.94; in the experiment on OR2G3 clone 1328 it was 1.79; with OR2G3 clone 1382 it was 1.49; with OR2G6 clone 1487, 1.59. Further, the odorant receptor activation in the experiment with OR2H1 clone 1393 amounted to 1.83; in experiment [2], 1.87; in the experiment on OR2H2 clone 1066, 1.64; in the experiment with OR2J2 T111A clone 1073 it was 1.54.
On to `CCCCCCCC=O` [octyl aldehyde], for which the odorant receptor activation in the experiment with OR2F2 A98V clone 1087 was 1.03; in experiment [1], 1.01; in the experiment on OR2G2 clone 1385, 0.908; in the experiment with OR2G3 clone 1328 it was 1.13; in the experiment on OR2G3 clone 1382, 0.905; in the experiment on OR2G6 clone 1487 it was 0.814. The odorant receptor activation in the experiment with OR2H1 clone 1393 came to 0.868; in experiment [2], 1.08; with OR2H2 clone 1066 it was 1.3; in the experiment on OR2J2 T111A clone 1073, 1.17.
Take `CCCCCCOC(=O)CCC` [hexyl butyrate]: the odorant receptor activation in the experiment with OR2F2 A98V clone 1087 is 0.825; in [1] it was 1.13 and 1.19; in the experiment with OR2G2 clone 1385, 0.987; with OR2G3 clone 1328, 1.45 and 0.915; with OR2G3 clone 1382 it was 0.868; in the experiment on OR2G6 clone 1487, 1.43 and 0.896. The odorant receptor activation with OR2H1 clone 1393 is 0.962; in experiment [2], 0.569; with OR2H2 clone 1066, 0.843; in the experiment with OR2J2 T111A clone 1073, 1.11.
For the molecule `CC(C)=CCCC(C)=CC=O` [citral], the odorant receptor activation was 1.03 in the experiment with OR2F2 A98V clone 1087; 1.1 in experiment [1]; 0.162 in the experiment on OR2G2 clone 1385; 1.16 in the experiment on OR2G3 clone 1328; 0.318 in the experiment with OR2G3 clone 1382; 1.57 in the experiment on OR2G6 clone 1487. The odorant receptor activation with OR2H1 clone 1393 was found to be 0.18; in experiment [2], 1.07; in the experiment on OR2H2 clone 1066, 1.24; in the experiment on OR2J2 T111A clone 1073, 3.74.
As to `CC12C=CCC1C1CCC3CC(=O)CCC3(C)C1CC2` (stereo not given) [androstenone], the odorant receptor activation in the experiment on OR2F2 A98V clone 1087 turned out to be 11.5; in experiment [1], 1.07; in the experiment on OR2G2 clone 1385 it was 1.53; in the experiment on OR2G3 clone 1328, 1.13; in the experiment with OR2G3 clone 1382, 1.02; in the experiment on OR2G6 clone 1487, 0.873. Further, the odorant receptor activation in the experiment with OR2H1 clone 1393 is 0.877; in experiment [2], 1.31; in the experiment on OR2H2 clone 1066, 2.11; with OR2J2 T111A clone 1073 it was 1.38.
Turning to `COc1ccccc1O` [guaiacol], the odorant receptor activation was 1.42 in the experiment with OR2F2 A98V clone 1087; 1.3 and 1.08 in experiment [1]; 0.866 with OR2G2 clone 1385; 0.806 and 0.895 in the experiment on OR2G3 clone 1328; 0.703 in the experiment on OR2G3 clone 1382; 0.925 and 0.862 with OR2G6 clone 1487. The odorant receptor activation in the experiment with OR2H1 clone 1393 came out at 0.917; in experiment [2], 1.31; in the experiment on OR2H2 clone 1066, 2.09; in the experiment with OR2J2 T111A clone 1073, 5.15.
As to `CCCCCCCCOC(C)=O` [octyl acetate], the odorant receptor activation in the experiment with OR2F2 A98V clone 1087 amounted to 0.899; in [1] it was 1.11; in the experiment with OR2G2 clone 1385, 1.05; in the experiment on OR2G3 clone 1328, 1.22; in the experiment on OR2G3 clone 1382, 1.27; in the experiment with OR2G6 clone 1487, 0.768. The odorant receptor activation was found to be 0.993 with OR2H1 clone 1393, 0.963 in experiment [2], 1.32 in the experiment with OR2H2 clone 1066 and 1.38 in the experiment with OR2J2 T111A clone 1073.
